Results from PMC7073115.
Results are given in words; binding and its absence hold for the method and conditions named. For part of these data: Binding seen in cells or lysates may run through a third protein. Some entries that bind do so weakly or less than the wild type. For part of these data: Sequences can lack the tags named with a protein.

Assays:
[1] = molecular target: T1, BAK1-CYFP (Arabidopsis thaliana) (UniProt Q94F62); experiment: split reporter; BiFC: BAK1-CYFP and CATs-NYFP co-expressed with P19 in N. benthamiana leaves; YFP imaged by confocal microscopy 3 days after infiltration
T1 sequence: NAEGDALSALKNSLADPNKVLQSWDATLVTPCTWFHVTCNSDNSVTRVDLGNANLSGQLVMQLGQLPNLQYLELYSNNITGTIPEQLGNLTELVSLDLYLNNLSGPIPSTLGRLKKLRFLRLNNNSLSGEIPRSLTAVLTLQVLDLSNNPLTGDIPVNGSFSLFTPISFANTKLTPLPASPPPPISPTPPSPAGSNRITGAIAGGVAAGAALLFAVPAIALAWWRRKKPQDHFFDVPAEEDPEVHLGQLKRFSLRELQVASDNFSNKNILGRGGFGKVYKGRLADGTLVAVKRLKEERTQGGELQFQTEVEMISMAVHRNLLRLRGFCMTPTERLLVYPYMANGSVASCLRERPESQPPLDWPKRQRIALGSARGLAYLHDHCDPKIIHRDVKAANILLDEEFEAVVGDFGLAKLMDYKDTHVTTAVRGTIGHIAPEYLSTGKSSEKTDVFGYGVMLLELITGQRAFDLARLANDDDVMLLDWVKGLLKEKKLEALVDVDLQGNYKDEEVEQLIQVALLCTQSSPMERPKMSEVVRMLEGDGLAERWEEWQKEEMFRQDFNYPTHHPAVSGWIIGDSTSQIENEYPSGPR

[2] = molecular target: T2, BAK1 kinase domain (yeast two-hybrid bait in pGBKT7) (Arabidopsis thaliana) (UniProt Q94F62); experiment: two-hybrid; BAK1 kinase domain in pGBKT7 as bait, full-length CATs in pGADT7 as prey; AH109 yeast; growth on SD/-Ade/-His/-Leu/-Trp and X-galactosidase activity
T2 sequence: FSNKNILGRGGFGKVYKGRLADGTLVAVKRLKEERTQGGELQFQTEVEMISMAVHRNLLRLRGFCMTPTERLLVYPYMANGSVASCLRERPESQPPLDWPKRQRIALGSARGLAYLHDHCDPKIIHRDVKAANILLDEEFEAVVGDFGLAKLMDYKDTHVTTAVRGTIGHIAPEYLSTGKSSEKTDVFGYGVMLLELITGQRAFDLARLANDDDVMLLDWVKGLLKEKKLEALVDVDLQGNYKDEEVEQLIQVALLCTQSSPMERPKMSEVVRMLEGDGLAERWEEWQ

[3] = molecular target: T3, BAK1-HA (35S::BAK1-HA) (Arabidopsis thaliana) (UniProt Q94F62); experiment: co-IP; BAK1-HA and CAT1/2/3-MYC co-expressed in N. benthamiana leaves with MG132 (25 uM); IP with anti-HA affinity matrix, Western blot with anti-MYC antibody
T3 sequence: T1 sequence

B1: CAT3-NYFP (enzyme, UniProt Q42547 1-492)
chain: MDPYKYRPSSAYNAPFYTTNGGAPVSNNISSLTIGERGPVLLEDYHLIEKVANFTRERIPERVVHARGISAKGFFEVTHDISNLTCADFLRAPGVQTPVIVRFSTVVHERASPETMRDIRGFAVKFYTREGNFDLVGNNTPVFFIRDGIQFPDVVHALKPNPKTNIQEYWRILDYMSHLPESLLTWCWMFDDVGIPQDYRHMEGFGVHTYTLIAKSGKVLFVKFHWKPTCGIKNLTDEEAKVVGGANHSHATKDLHDAIASGNYPEWKLFIQTMDPADEDKFDFDPLDVTKIWPEDILPLQPVGRLVLNRTIDNFFNETEQLAFNPGLVVPGIYYSDDKLLQCRIFAYGDTQRHRLGPNYLQLPVNAPKCAHHNNHHEGFMNFMHRDEEINYYPSKFDPVRCAEKVPTPTNSYTGIRTKCVIKKENNFKQAGDRYRSWAPDRQDRFVKRWVEILSEPRLTHEIRGIWISYWSQADRSLGQKLASRLNVRPSI
B1 was tested, and the binding [1] was “binds”.

B2: Catalase 2 (CAT2), yeast two-hybrid prey in pGADT7 (enzyme, UniProt P25819 1-492)
chain: MDPYKYRPASSYNSPFFTTNSGAPVWNNNSSMTVGPRGPILLEDYHLVEKLANFDRERIPERVVHARGASAKGFFEVTHDISNLTCADFLRAPGVQTPVIVRFSTVIHERGSPETLRDPRGFAVKFYTREGNFDLVGNNFPVFFIRDGMKFPDMVHALKPNPKSHIQENWRILDFFSHHPESLNMFTFLFDDIGIPQDYRHMDGSGVNTYMLINKAGKAHYVKFHWKPTCGVKSLLEEDAIRVGGTNHSHATQDLYDSIAAGNYPEWKLFIQIIDPADEDKFDFDPLDVTKTWPEDILPLQPVGRMVLNKNIDNFFAENEQLAFCPAIIVPGIHYSDDKLLQTRVFSYADTQRHRLGPNYLQLPVNAPKCAHHNNHHEGFMNFMHRDEEVNYFPSRYDQVRHAEKYPTPPAVCSGKRERCIIEKENNFKEPGERYRTFTPERQERFIQRWIDALSDPRITHEIRSIWISYWSQADKSLGQKLASRLNVRPSI
For B2, the binding [2] was “binds”.

B3: Catalase 3 (CAT3), yeast two-hybrid prey in pGADT7 (enzyme, UniProt Q42547 1-492)
chain: B1 chain
With B3 the binding [2] was “binds”.

B4: CAT2-MYC (35S::CAT2-MYC) (enzyme, UniProt P25819 1-492)
chain: B2 chain
In the case of B4, the binding [3] is reported as “binds”.

B5: CAT3-MYC (35S::CAT3-MYC) (enzyme, UniProt Q42547 1-492)
chain: B1 chain
For B5, the binding [3] was “binds”.

B6: CAT2-NYFP (enzyme, UniProt P25819 1-492)
chain: B2 chain
In the case of B6, the binding [1] is reported as “binds”.
